The values that follow come from publication PMC3328448.

By UniProt entry, the sequences of proteins in these tests, tags left out.
UniProt Q9SXZ2: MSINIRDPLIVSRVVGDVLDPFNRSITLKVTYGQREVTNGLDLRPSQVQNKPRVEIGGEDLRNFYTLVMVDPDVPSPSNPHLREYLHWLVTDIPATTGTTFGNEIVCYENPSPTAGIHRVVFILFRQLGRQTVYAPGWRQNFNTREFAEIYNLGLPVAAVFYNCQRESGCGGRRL

For assay [1], the target named is BD-FT (FLOWERING LOCUS T fused to the Gal4 DNA-binding domain) (Arabidopsis) (UniProt Q9SXZ2). Kind of assay: two-hybrid; BD-FT co-transformed with FTIP1 versions in pGADT7; growth on SD-His/-Trp/-Leu with 30 mM 3-amino-1,2,4-triazole; beta-galactosidase assays.
The target of a further assay is GST-FT (Arabidopsis) (UniProt Q9SXZ2). Put plainly: pull-down; GST-FT immobilized on glutathione sepharose beads, incubated with in vitro translated myc-FTIP1(N501); detected with anti-myc antibody; only the target purified.

Results are given in words; binding and its absence hold for the method and conditions named. For some assays here: In cells and extracts the contact can be indirect. Some results given as binding are weak or reduced against the parent protein; the word gives no strength. For some assays here: Where a sequence is shown, tags or fusion partners need not be part of it.

B1: FTIP1 (N501) in pGADT7 (domain or fragment, UniProt Q9FL59 1-501)
chain: MAAKDGAKSQEDYKLKDMKPELGERWPHGGQRGGTGWIGSERAASTYDLVEQMFYLYVRVVKAKDLPPNPVTSNCDPYVEVKIGNYKGKTKHFEKRTNPEWNQVFAFSKDKVQSSTVEVFVRDKEMVTRDEYIGKVVFDMREVPTRVPPDSPLAPQWYRLEDRRGESKKRGEVMVAVWLGTQADEAFPDAWHSDASSVQGEGVQSVRSKVYVSPKLWYLRVNVIEAQDVEPSDRSQPPQAFVKVQVGNQILKTKLCPNKTTNPMWNEDLVFVAAEPFEEQFFLTVENKVTPAKDEVMGRLISPLSVFEKRLDHRAVHSKWYNLEKFGFGALEGDKRHELKFSSRIHLRVCLEGGYHVMDESTLYISDVKPTARQLWKSPIGILEVGILSAQGLSPMKTKDGKATTDPYCVAKYGQKWVRTRTIIDSSSPKWNEQYTWEVYDPCTVITLGVFDNCHLGGSEKSNSGAKVDSRIGKVRIRLSTLEADRIYTHSYPLLVLQTKG
Turning to B1, in assay [1], the binding result is “binds”.

B2: myc-FTIP1(N501) (domain or fragment, UniProt Q9FL59 1-501)
chain: B1 chain
Consider B2, for which, in the assay with GST-FT (Arabidopsis), the binding entry is given as “binds”.
